The results in this text go back to paper PMC3723494.

The chains behind the UniProt entries cited, without tags or fusion partners. Where a name states a change or a piece, a line headed by the entry shows the natural chain unless it says otherwise.
UniProt Q91YE7: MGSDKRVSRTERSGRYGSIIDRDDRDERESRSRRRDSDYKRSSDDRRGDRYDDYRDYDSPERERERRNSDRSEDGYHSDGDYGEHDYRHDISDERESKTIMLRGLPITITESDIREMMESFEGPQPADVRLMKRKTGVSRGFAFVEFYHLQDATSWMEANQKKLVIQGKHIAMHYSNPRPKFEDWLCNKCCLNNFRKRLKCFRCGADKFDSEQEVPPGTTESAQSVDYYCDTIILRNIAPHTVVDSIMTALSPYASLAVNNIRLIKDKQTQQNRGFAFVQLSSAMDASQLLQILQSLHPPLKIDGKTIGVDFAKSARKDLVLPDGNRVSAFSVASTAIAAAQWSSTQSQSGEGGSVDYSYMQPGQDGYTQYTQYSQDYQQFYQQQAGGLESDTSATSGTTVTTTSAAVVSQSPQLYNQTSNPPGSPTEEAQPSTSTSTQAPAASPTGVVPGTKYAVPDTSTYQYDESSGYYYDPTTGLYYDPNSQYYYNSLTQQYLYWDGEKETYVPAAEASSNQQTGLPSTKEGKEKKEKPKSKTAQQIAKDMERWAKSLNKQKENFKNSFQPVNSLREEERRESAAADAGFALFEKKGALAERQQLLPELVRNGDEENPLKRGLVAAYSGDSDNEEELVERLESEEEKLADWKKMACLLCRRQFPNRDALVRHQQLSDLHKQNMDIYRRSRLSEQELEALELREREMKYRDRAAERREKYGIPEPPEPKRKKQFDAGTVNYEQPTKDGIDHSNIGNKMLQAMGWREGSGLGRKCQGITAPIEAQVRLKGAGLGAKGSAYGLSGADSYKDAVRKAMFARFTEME
UniProt P70372: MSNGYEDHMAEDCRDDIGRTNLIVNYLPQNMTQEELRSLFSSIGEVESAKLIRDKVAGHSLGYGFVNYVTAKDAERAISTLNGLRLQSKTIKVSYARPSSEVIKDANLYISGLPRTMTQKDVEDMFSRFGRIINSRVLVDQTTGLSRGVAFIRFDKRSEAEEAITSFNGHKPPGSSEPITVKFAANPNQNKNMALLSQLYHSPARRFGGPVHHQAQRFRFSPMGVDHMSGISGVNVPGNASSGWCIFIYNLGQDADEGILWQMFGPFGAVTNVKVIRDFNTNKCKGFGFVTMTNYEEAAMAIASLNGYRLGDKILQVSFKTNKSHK
UniProt Q8K310: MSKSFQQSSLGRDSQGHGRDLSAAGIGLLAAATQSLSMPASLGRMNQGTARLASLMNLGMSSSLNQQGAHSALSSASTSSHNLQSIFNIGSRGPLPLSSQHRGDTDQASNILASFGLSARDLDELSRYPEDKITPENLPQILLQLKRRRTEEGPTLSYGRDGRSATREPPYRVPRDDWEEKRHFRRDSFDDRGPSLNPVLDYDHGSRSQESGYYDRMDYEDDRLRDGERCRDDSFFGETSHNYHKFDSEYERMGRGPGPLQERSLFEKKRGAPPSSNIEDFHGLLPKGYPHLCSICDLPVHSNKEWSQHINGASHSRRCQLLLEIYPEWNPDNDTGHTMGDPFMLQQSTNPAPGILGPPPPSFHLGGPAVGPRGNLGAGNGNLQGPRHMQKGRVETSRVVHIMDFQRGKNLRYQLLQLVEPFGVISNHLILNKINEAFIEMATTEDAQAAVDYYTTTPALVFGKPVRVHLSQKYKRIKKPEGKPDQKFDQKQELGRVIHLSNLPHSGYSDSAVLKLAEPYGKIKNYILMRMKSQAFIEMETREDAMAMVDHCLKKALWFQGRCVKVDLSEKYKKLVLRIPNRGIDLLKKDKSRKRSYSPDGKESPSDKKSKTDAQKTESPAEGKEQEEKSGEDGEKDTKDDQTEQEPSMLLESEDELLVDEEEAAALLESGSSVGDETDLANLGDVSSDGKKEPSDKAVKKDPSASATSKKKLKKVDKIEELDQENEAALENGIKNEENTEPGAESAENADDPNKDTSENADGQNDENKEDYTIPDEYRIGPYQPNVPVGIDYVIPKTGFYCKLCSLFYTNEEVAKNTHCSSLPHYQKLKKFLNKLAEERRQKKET
UniProt P29341: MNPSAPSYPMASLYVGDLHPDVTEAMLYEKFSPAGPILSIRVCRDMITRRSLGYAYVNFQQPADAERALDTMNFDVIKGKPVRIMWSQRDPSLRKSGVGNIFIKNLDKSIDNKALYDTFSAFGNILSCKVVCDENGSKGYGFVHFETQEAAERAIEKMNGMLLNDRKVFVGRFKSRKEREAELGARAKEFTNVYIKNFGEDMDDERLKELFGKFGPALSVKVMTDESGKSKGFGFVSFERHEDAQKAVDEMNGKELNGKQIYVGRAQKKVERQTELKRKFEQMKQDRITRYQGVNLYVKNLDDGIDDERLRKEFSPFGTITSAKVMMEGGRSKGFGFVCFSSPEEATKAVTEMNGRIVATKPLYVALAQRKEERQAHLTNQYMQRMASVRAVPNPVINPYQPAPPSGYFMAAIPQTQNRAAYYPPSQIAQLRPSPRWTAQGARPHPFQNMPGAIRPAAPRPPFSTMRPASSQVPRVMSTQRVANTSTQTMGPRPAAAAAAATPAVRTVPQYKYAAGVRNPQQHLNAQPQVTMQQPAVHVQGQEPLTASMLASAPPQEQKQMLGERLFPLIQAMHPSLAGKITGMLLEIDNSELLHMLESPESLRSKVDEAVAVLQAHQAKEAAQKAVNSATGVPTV
UniProt Q99JF8: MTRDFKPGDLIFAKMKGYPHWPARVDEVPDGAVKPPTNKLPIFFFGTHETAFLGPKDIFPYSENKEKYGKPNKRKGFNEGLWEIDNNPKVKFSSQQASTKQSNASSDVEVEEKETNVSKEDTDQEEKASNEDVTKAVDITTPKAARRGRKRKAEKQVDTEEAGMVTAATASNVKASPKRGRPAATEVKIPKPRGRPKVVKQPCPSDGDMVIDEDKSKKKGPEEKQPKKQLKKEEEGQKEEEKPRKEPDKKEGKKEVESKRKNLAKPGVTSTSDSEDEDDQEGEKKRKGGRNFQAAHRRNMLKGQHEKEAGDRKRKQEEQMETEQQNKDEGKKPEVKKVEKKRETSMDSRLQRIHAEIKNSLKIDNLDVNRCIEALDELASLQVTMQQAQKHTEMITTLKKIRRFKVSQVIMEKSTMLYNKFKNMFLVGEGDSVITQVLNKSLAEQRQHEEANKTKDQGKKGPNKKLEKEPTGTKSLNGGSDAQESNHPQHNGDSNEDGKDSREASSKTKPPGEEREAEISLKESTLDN
UniProt Q6PDM2: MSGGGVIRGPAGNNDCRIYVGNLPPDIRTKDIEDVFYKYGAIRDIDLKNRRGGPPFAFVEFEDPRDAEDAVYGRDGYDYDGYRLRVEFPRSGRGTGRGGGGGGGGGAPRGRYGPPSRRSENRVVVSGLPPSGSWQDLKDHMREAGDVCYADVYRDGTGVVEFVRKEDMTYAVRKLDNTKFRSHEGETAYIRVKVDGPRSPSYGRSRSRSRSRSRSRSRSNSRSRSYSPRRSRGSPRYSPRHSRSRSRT
UniProt Q62189: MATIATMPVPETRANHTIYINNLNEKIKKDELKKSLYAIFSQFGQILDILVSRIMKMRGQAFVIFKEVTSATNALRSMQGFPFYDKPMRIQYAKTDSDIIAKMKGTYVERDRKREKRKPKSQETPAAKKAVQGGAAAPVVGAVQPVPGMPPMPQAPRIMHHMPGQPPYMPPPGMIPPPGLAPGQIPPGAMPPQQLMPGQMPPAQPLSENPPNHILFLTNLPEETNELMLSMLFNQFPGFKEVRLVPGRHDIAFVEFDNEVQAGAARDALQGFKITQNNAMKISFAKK
UniProt O88569: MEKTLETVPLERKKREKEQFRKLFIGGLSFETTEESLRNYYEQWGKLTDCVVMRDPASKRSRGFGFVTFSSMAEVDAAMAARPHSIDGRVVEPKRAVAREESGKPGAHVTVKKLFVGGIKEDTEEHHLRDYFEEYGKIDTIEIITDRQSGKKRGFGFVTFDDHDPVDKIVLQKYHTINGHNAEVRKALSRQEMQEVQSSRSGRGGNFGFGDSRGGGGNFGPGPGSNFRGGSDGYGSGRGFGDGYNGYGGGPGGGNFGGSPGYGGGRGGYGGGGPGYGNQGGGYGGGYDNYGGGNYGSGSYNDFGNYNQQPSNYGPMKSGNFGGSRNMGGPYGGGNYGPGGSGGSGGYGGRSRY
UniProt Q8VDM6: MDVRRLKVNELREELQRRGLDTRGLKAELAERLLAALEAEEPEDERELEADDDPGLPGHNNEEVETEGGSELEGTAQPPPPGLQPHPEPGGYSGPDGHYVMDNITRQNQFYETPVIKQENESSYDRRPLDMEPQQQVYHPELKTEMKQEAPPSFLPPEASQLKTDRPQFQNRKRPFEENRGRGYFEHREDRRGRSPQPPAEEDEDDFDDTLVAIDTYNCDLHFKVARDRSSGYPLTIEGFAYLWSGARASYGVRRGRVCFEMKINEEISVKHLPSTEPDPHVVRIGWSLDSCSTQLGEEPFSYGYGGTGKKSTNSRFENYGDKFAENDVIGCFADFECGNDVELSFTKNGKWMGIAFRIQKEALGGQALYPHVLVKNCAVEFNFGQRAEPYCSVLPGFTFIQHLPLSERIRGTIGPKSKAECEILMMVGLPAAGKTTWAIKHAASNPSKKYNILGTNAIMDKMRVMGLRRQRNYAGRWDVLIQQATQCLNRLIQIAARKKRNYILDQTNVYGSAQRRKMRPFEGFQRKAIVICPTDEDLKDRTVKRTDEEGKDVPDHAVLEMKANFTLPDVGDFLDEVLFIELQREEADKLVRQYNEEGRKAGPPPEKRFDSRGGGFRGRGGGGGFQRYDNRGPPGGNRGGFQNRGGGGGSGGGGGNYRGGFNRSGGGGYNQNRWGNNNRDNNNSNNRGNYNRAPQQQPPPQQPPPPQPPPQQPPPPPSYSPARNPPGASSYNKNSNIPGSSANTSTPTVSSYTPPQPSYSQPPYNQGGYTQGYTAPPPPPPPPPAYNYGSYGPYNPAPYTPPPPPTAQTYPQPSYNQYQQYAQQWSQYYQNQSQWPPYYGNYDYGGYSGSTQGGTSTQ

This assay concerns the target RBM5 (RNA binding motif 5) (mouse (endogenous in round spermatids)) (UniProt Q91YE7). The assay can be described thus: affinity purification with mass spectrometry; immunoprecipitation of RBM5 from purified round spermatid extracts with 5 ug RBM5 mouse monoclonal antibody (mouse IgG1 as control); immunocomplexes analysed by mass spectrometry; hits: Mascot score at least 40 and more than 2 unique peptides.

These are yes or no findings as the source states them, for the method shown. Binding seen in cells or lysates may run through a third protein. Here binding means that the protein was enriched with, or labelled near, the bait; the list need not be complete.

For “ELAV1 (embryonic lethal abnormal vision-like protein 1) (from UniProt P70372 1-326)”, the binding result is given as “binds”. On to MATR3 (from UniProt Q8K310 1-846), for which the binding entry is reported as “binds”. Turning to “PABP1 (polyadenylate-binding protein 1) (from UniProt P29341 1-636)”, the binding entry was “binds”. As for “PSIP1 (PC4 and SFRS1-interacting protein) (from UniProt Q99JF8 1-528)”, the binding result is “binds”.

For “SFRS1 (serine/arginine-rich splicing factor 1) (from UniProt Q6PDM2 1-248)”, the binding entry is reported as “binds”. As for “U1A (small nuclear ribonucleoprotein polypeptide A) (from UniProt Q62189 1-287)”, the binding result is “binds”. For the molecule “hnRNP A2/B1 (heterogeneous nuclear ribonucleoprotein A2/B1) (from UniProt O88569 1-353)”, the binding entry was “binds”. To “hnRNP K (heterogeneous nuclear ribonucleoprotein K) (from UniProt P61979 1-463)” belongs “binds”. In the case of “hnRNP UL1 (heterogeneous nuclear ribonucleoprotein UL1) (from UniProt Q8VDM6 1-859)”, the binding entry was “binds”.

B1: splicing factor SFPQ (proline- and glutamine-rich) (protein, UniProt Q8VIJ6 1-699)
chain: MSRDRFRSRGGGGGGFHRRGGGGGRGGLHDFRSPPPGMGLNQNRGPMGPGPGGPKPPLPPPPPHQQQQQPPPQQPPPQQPPPHQQPPPHQPPHQQPPPPPQESKPVVPQGPGSAPGVSSAPPPAVSAPPANPPTTGAPPGPGPTPTPPPAVPSTAPGPPPPSTPSSGVSTTPPQTGGPPPPPAGGAGPGPKPGPGPGGPKGGKMPGGPKPGGGPGMGAPGGHPKPPHRGGGEPRGGRQHHAPYHQQHHQGPPPGGPGPRTEEKISDSEGFKANLSLLRRPGEKTYTQRCRLFVGNLPADITEDEFKRLFAKYGEPGEVFINKGKGFGFIKLESRALAEIAKAELDDTPMRGRQLRVRFATHAAALSVRNLSPYVSNELLEEAFSQFGPIERAVVIVDDRGRSTGKGIVEFASKPAARKAFERCSEGVFLLTTTPRPVIVEPLEQLDDEDGLPEKLAQKNPMYQKERETPPRFAQHGTFEYEYSQRWKSLDEMEKQQREQVEKNMKDAKDKLESEMEDAYHEHQANLLRQDLMRRQEELRRMEELHSQEMQKRKEMQLRQEEERRRREEEMMIRQREMEEQMRRQREESYSRMGYMDPRERDMRMGGGGTMNMGDPYGSGGQKFPPLGGGGGIGYEANPGVPPATMSGSMMGSDMRTERFGQGGAGPVGGQGPRGMGPGTPAGYGRGREEYEGPNKKPRF
Consider B1, for which the binding result is recorded as “binds”.

B2: DDX4 (DEAD (Asp-Glu-Ala-Asp) box helicase 4) (protein, UniProt Q61496 1-702)
chain: MGDEDWEAEILKPHVSSYVPVFEKDKYSSGANGDTFNRTSASSDIGESSKKENTSTTGGFGRGKGFGNRGFLNNKFEEGDSSGFWKESNNDCEDNQTRSRGFSKRGGCQDGNDSEASGPFRRGGRGSFRGCRGGFGLGRPNSESDQDQGTQRGGGLFGSRKPAASDSGNGDTYQSRSGSGRGGYKGLNEEVVTGSGKNSWKSETEGGESSDSQGPKVTYIPPPPPEDEDSIFAHYQTGINFDKYDTILVEVSGHDAPPAILTFEEANLCQTLNNNIAKAGYTKLTPVQKYSIPIVLAGRDLMACAQTGSGKTAAFLLPILAHMMRDGITASRFKELQEPECIIVAPTRELINQIYLEARKFSFGTCVRAVVIYGGTQFGHSVRQIVQGCNILCATPGRLMDIIGKEKIGLKQVKYLVLDEADRMLDMGFGPEMKKLISCPGMPSKEQRQTLLFSATFPEEIQRLAGDFLKSSYLFVAVGQVGGACRDVQQTILQVGQYSKREKLVEILRNIGDERTMVFVETKKKADFIATFLCQEKISTTSIHGDREQREREQALGDFRCGKCPVLVATSVAARGLDIENVQHVINFDLPSTIDEYVHRIGRTGRCGNTGRAISFFDTDSDNHLAQPLVKVLSDAQQDVPAWLEEIAFSTYVPPSFSSSTRGGAVFASVDTRKNYQGKHTLNTAGISSSQAPNPVDDESWD
Turning to B2, the binding entry is “binds”.

B3: PSPC1 (paraspeckle component 1) (protein, UniProt Q8R326 1-523)
chain: MMLRGNLKQVRIEKNPARLRALESAAGESEPVAAAAMALTLAGEQAPPPAPSEEHPDEELGFTIDIKSFLKPGEKTYTQRCRLFVGNLPTDITEEDFKRLFERYGEPSEVFINRDRGFGFIRLESRTLAEIAKAELDGTILKSRPLRIRFATHGAALTVKNLSPVVSNELLEQAFSQFGPVEKAVVVVDDRGRATGKGFVEFAAKPPARKALERCGDGAFLLTTTPRPVIVEPMEQFDDEDGLPEKLMQKTQQYHKEREQPPRFAQPGTFEFEYASRWKALDEMEKQQREQVDRNIREAKEKLEAEMEAARHEHQLMLMRQDLMRRQEELRRLEELRNQELQKRKQIQLRHEEEHRRREEEMIRHREQEELRRQQEGGFKPNYMENREQEMRMGDMGPRGAINMGDAFSPAPAGTQGPPPMMGMNMNNRGTIPGPPMGPGPAMGPEGAANMGTPMIPDNGAVHNDRFPQGPPSQMGSPMGNRTGSETPQAPMSGVGPVSGGPGGFGRGSQGGNFEGPNKRRRY
In the case of B3, the binding result is given as “binds”.
